Our source for the activity change, negative = inhibition values is PubChem BioAssay AID488840 (Broad Institute, 2010).

Protein sequences, listed by entry. Tags and fused reporters are not part of them. Lines headed by an entry give the natural chain unless they say otherwise; changes in a name come on top.
UniProt O75164: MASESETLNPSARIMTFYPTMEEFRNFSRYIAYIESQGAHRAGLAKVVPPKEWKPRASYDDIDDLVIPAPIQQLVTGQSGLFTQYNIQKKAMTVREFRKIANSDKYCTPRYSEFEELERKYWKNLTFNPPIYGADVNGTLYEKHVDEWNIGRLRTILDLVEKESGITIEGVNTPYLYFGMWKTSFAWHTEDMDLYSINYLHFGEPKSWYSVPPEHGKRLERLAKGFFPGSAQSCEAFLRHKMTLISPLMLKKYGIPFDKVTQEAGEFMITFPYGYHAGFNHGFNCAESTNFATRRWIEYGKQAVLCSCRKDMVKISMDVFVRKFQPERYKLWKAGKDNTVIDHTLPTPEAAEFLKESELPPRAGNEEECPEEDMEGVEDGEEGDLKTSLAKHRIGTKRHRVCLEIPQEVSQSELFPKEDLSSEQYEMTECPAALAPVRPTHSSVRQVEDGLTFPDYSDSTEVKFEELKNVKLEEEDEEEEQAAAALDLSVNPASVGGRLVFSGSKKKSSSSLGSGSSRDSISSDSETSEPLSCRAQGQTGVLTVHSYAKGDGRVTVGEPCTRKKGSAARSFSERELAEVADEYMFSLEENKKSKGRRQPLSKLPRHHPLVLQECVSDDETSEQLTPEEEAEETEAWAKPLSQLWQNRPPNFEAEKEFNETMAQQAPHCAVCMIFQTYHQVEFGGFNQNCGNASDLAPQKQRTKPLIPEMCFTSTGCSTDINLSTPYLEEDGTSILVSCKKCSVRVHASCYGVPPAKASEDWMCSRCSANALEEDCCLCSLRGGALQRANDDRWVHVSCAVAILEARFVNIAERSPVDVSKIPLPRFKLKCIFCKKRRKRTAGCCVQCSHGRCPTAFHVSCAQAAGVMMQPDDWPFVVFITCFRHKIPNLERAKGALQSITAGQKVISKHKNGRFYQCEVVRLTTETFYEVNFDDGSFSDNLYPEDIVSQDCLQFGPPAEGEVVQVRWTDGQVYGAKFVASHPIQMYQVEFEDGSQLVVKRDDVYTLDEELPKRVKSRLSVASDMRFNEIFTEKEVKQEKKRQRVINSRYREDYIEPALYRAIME

The campaign covered roughly 1,400 compounds. About 45 (3%) were called active.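 The calls were made as follows: active = half-maximal dose of signal decrease from fit no higher than ten times the top valid tested dose; inconclusive = fit invalid, or curve flat with 30 to 70% inhibition; inactive = the rest.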 The list shows a part of the results. Entries with a potency or affinity are not part of this list.

This experiment has as its target Lysine-specific demethylase 4A (Homo sapiens) (UniProt O75164). The experiment in a line: inhibition of JMJD2A H3K9me3 demethylation – biochemical, DELFIA europium, cherry-picked samples, selectivity assay for GASC-1 inhibitor project, dose response (AID 488840).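 Also: europium signal reports the dimethyl H3K9 product detected by antibody so inhibitors lower it; 0% = median of neutral control wells and -100% = median of positive control wells.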 The conditions noted are these: GST-JMJD2A(1-420) H3K9me3 demethylation; at 6 µM (top of the series) unless noted.
As for `CN(C)CCCN1C(=O)C(=O)/C(=C(/O)c2ccncc2)C1c1ccccc1` (stereo not drawn), the activity change, negative = inhibition is inactive: -6.22%.
The result for `O=[N+]([O-])c1cc(/C=N/Nc2nc3ccccc3[nH]2)c(O)cc1O` reads inactive: -3.66%; that for `COCCn1nnnc1C(C(C)C)N1CCCC(C)C1` (stereo not drawn), inactive: 12.8%; that for `COC(=O)NNC(=S)Nc1cc(OC)ccc1OC`, inactive: 3.22%.
The result for `CC(C)(C)c1ccc(C(=O)NNC(=O)c2cccc(Br)c2)cc1` reads inactive: -1.86%.
The value for `Cc1cc(C)n2nc(C(=O)N3CCCC(Nc4ccc(F)c(F)c4)C3)cc2n1` (stereo not drawn) was inactive: -1.01%; that for `C[C@@]12C(=O)Nc3ccc(Br)cc3C(=O)N1[C@H]1c3ccccc3OC[C@@H]1[C@@H]2c1ccccc1` was inactive: 0.334%; that for `Cc1occc1-c1nnc(SCC(=O)Nc2ccccc2)n1C(C)c1ccccc1` (stereo not drawn) was inactive: 4.91%.
For `C#CCOCCOCCOCCNc1nc(N2CCN(C(=O)[C@H](CCCCN)n3cc([C@@H](N)[C@H](C)CC)nn3)CC2)nc(N2CCN(C(=O)[C@H](CCC(=O)O)n3cc([C@@H](N)CCSC)nn3)CC2)n1`, the activity change, negative = inhibition was inactive: 1.28%.
The value for `CCOC(=O)N1CCc2c(sc3nc4n(c(=O)c23)N=C(C)CS4)C1` was inactive: 1.41%; that for `CCS(=O)(=O)N1CCCC(C(=O)NCCCN2CCCC2=O)C1` (stereo not drawn) was inactive: -3.83%.
Regarding `CC(=O)N1CCN(c2ccc(NC(=O)c3ccc4ccccc4c3)cc2)CC1`, the activity change, negative = inhibition was inactive: -2.97%.
The value for `CC(=O)Nc1n[nH]c(-c2ccc(C)cc2)c1C` was inactive: -3.56%.
For the compound `C[C@@H]1CN([C@H](C)CO)C(=O)c2cccc(NC(=O)c3ccncc3)c2O[C@@H]1CN(C)Cc1ccc(C(=O)O)cc1`, the activity change, negative = inhibition is inactive: -6.22%.
The value for `Cn1c(CNC(=O)c2ccccc2F)nnc1SCC(=O)Nc1nnc(C2CC2)s1` was inactive: 7.99%; that for `CCCCN(CC)S(=O)(=O)c1ccc(C(=O)Nc2nnc(COC)o2)cc1` was inactive: -1.78%.
The value for `Cc1cc(N(C)C)cc(C)[n+]1[O-]` was inactive: -3.46%.
Take `Cc1ccc(NC(=O)c2ccc(OC(=O)CCN3C(=O)c4ccccc4C3=O)cc2)cc1`: the activity change, negative = inhibition is inactive: -8.02%.
On to `COC(=O)[C@]1(C)N[C@H](CN(C)C(=O)Nc2ccc(C)cc2)[C@@H]2C(=O)N(Cc3ccccc3)C(=O)[C@@H]21`, for which the activity change, negative = inhibition was inactive: 0.249%.
The result for `Cc1oc(C(C)(C)C)cc1C(=O)N1CCN(c2ncccc2C(F)(F)F)CC1` reads inactive: -11.5%; that for `O=C(O)c1ccc(/C=N/Nc2cccc(C(F)(F)F)c2)cc1`, inactive: -2.27%.
In the case of `Cn1c(SCC(=O)Nc2cc(S(=O)(=O)N3CCOCC3)ccc2N2CCOCC2)nnc1-c1ccncc1`, the activity change, negative = inhibition was inactive: -2.3%.
For `C[C@@H]1CC[C@]2(C(=O)O[C@@H]3O[C@H](CO)[C@@H](O)[C@H](O)[C@H]3O)CC[C@]3(C)C(=CCC4[C@@]5(C)C[C@@H](O)[C@H](O)[C@@](C)(C(=O)O[C@@H]6[C@H](O)C[C@@]7(C)C(CC[C@]8(C)C7CC=C7[C@H]9[C@](C(=O)O[C@@H]%10O[C@H](CO)[C@@H](O)[C@H](O)[C@H]%10O)(CC[C@@H](C)[C@@]9(C)O)CC[C@]78C)[C@@]6(CO)C(=O)O)C5CC[C@]43C)[C@@H]2[C@]1(C)O` (stereo partly drawn), the activity change, negative = inhibition was inactive: -1.66%.
The result for `O=C(NCc1cccc(F)c1)C1CCN(S(=O)(=O)Cc2ccccc2)CC1` reads inactive: -0.0856%; that for `Cn1cccc1-c1nc2ccc(NC(=O)c3cccs3)cc2[nH]1`, inactive: 0.536%; that for `C[C@H](CO)N1C[C@H](C)[C@@H](CN(C)C(=O)NC2CCCCC2)Oc2c(NC(=O)c3ccncc3)cccc2C1=O`, inactive: -3.17%.
The result for `Cn1c2ccccc2c2c(C(=O)N3CCN(c4ccccn4)CC3)cn(C3CCCC3)c(=O)c21` reads inactive: 4.26%; that for `Cc1cccc2c1-c1sc(C(=O)Nc3cccc([N+](=O)[O-])c3C)cc1CO2`, inactive: -0.619%.
For `Cc1ccc(C(=O)NCCCCNC(=O)c2ccc(C)o2)o1`, the activity change, negative = inhibition is inactive: -5.72%.
Consider `O=C(c1cccc(-n2cccc2)c1)N1CCN(S(=O)(=O)c2c(F)cccc2F)CC1`, for which the activity change, negative = inhibition was inactive: 5.19%.
The value for `COc1ccc(NC(=O)Nc2c[nH]c(=O)[nH]c2=O)cc1OC` was inactive: -16.7%; that for `CC(=O)N=c1sccn1CC(=O)c1ccc([N+](=O)[O-])cc1` was inactive: -13.9%.
The value for `CCOC(=O)C1CCN(S(=O)(=O)c2cccc(-c3cn4cc(Cl)ccc4n3)c2)CC1` was inactive: 0.705%.
The value for `Cn1c(=O)[nH]c(=O)c2c1nc(N1CCc3ccccc3C1)n2CCSc1nc2ccccc2s1` was inactive: -0.272%; that for `C=CCOc1ccc(C(=O)NC2CCCCC2)cc1` was inactive: -3.43%.
Regarding `C[C@H](CO)N1C[C@H](C)[C@@H](CN(C)Cc2ccncc2)Oc2c(NC(=O)Cc3ccccc3)cccc2C1=O`, the activity change, negative = inhibition is inactive: 5.08%.
The result for `CC#CCOC(=O)c1c(C)nc2sc3c(c2c1N)CCC(O)C3` (stereo not drawn) reads inactive: -2.42%; that for `C[C@@]12C(=O)Nc3cc(F)c(F)cc3C(=O)N1[C@H]1c3cc(Cl)ccc3OC[C@@H]1[C@@H]2c1ccccc1`, inactive: -3.04%; that for `CCCCn1c(=O)[nH]c(=O)c2c1nc(-c1cc(Cl)c(OC)c(OC)c1)n2C`, inactive: 1.79%.
For `CCC(CC)NC(=O)CSc1nnc(-c2ccc(OC)cc2)n1C(C)C`, the activity change, negative = inhibition is inactive: -3.51%.
The value for `CC(=O)N(C)C1=C(N2CCOCC2)C(=O)c2ccccc2C1=O` was inactive: -1.83%; that for `Cn1c(=O)c2c(nc(NC3CCCCC3)n2Cc2ccccc2)n(C)c1=O` was inactive: -1.32%; that for `COc1ccc(CC(=O)Nc2ccc(/C(C)=N/NC(=O)c3cccc([N+](=O)[O-])c3)cc2)cc1` was inactive: 3.57%.
Regarding `COc1cccc(/C=N/NC(=O)CNC(=O)c2cccs2)c1O`, the activity change, negative = inhibition was inactive: -0.374%.
As to `O=[N+]([O-])c1ccccc1S(=O)(=O)N1CCN(Cc2ccc3c(c2)OCO3)CC1`, the activity change, negative = inhibition is inactive: -0.819%.
The result for `O=C(Cc1sc(-c2ccccc2)nc1-c1ccccc1)Nc1ccccc1` reads inactive: 4.26%; that for `O=C(CSc1nnc(CNC(=O)c2cccs2)o1)c1ccccc1`, inactive: 2.01%.
Regarding `CCOc1cccc(C2C(C(=O)c3ccco3)=C(O)C(=O)N2Cc2ccncc2)c1` (stereo not drawn), the activity change, negative = inhibition is inactive: -0.0442%.
